Source: PubChem BioAssay AID1347076 (National Center for Advancing Translational Sciences (NCATS), 2019)
Values joined by “and” are separate entries in the source; they are usually repeats but may differ in a detail not shown here. Equal entries are not always repeated. Among all 400,000 compounds or so, about 13,000 (3.2%) were called active. This list was built around the results that the source calls inconclusive (neither active nor inactive); the mix of calls is not that of the screen. The call rests on the fitted dose curve; in most records, active means well fitted cell-killing curve with a large enough effect; inconclusive means small, poorly fitted or top-dose-only effect, or effect the other way; inactive means flat fitted curve, though single readings scatter. Where the call is inconclusive, the potency comes from a doubtful curve fit.

experiment: qHTS assay for MDR1-selective chemotherapeutics: Primary screen using the drug-selected MDR subline cells KB-V1; details: KB-V1 MDR cells viability, CellTiter-Glo, 72 h; activity change, negative = cytotoxicity: at 46.1 µM (top of the series); further: nearly all actives have a fitted effect of over 60% in size
Method in brief: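 KB-V1 MDR subline cells in DMEM (phenol-red free, 10% FBS) exposed to compounds in qHTS concentration series for 72 h at 37 degrees C. Viability read by CellTiter-Glo luminescence; concentration-effect curves fitted after normalization and correction.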
On the % scale 0 is the no-effect control and ±100 the full control effect; potency means the concentration at half of the fitted maximal effect.

Structure (SMILES)	activity change, negative = cytotoxicity	Potency
Cc1ccc(Cn2c(=O)n(Cc3nc(-c4ccccc4)no3)c(=O)c3cc4c(cc32)OCO4)cc1	inactive: 1.08%	
COc1ccccc1OCCCn1c(C2CC(=O)N(c3ccccc3Cl)C2)nc2ccccc21 (centres undefined)		inconclusive: 29.1 µM [cytotoxic, single point]
CCOc1ccc(NC(=O)CCC(=O)Nc2nnc(CC)s2)cc1		inconclusive: 29.1 µM [rising, single point]
CC(=O)N1CCCN(C(=O)c2ccc3nc(Cc4cccc(Cl)c4)oc3c2)CC1		inconclusive: 9.2 µM [cytotoxic, partial curve, poor fit]
Cn1c(=O)c(N)c2c3c(c(Br)ccc31)C(=O)c1ccccc1-2	inconclusive: -36.5%	
O=C(CCCN1C(=O)/C(=C/c2ccc(F)cc2)SC1=S)NCCCn1ccnc1		inconclusive: 29.1 µM [rising, single point]
CC1(C(=O)NS(=O)(=O)C2CC2)CCN(C(=O)c2ccccc2C(F)(F)F)C1 (centres undefined)	inactive: -15.4%	
C=CCNc1nc(-c2cc3ccccc3o2)cs1		inconclusive: 32.6 µM [cytotoxic, single point]
CCOc1ccc(S(=O)(=O)N(C)CC(=O)NCc2ccco2)cc1	inactive: 15.2%	
CCC1(c2ccc(OC)cc2)NC(=O)N(CC(=O)c2ccc3c(c2)OCCO3)C1=O (centres undefined)		inconclusive: 20.6 µM [cytotoxic, partial curve, poor fit]
Cc1ccccc1C(=O)N1CCN(c2ccc(NC(=O)c3ccc4c(c3)OCO4)cc2)CC1		inconclusive: 5.8 µM [cytotoxic, full curve]
Cc1ccc(OC(C)C(=O)Nc2ccccc2C(=O)NCc2cccnc2)cc1C (centres undefined)		inconclusive: 29.1 µM [cytotoxic, single point]
Cc1ccc(NC(=S)NCc2ccccc2)cc1[N+](=O)[O-]	inactive: -5.68%	
O=C(COC(=O)c1ccc(S(=O)(=O)NCc2ccco2)cc1)NCc1ccc(F)cc1		inconclusive: 29.1 µM [rising, single point]
COc1ccc(OCC(=O)NC(=S)Nc2ccc(S(=O)(=O)Nc3cc(OC)nc(OC)n3)cc2)cc1	inactive: 15.8%	
CCc1ccc(-n2c(=O)c3ccc(C(=O)NCCc4ccccc4)cc3n(CC(N)=O)c2=O)cc1		inconclusive: 0.13 µM [rising, full curve, poor fit]
O=c1cc(N2CCN(c3ccc(F)cc3)CC2)[nH]c(=O)n1C1CCCCC1		inconclusive: 4.11 µM [cytotoxic, full curve, poor fit]
C=CCN(CC=C)C(=O)c1ccc(OC2CCN(Cc3ccccn3)CC2)cc1		inconclusive: 25.9 µM [cytotoxic, single point]
Cc1nc(SC2CC(=O)N(c3ccccc3)C2=O)nc2c1CCCC2 (centres undefined)		inconclusive: 35.5 µM [cytotoxic, single point]
Fc1ccc(-c2nnc3ccc(N4CCc5ccccc5C4)nn23)cc1		inconclusive: 16.4 µM [cytotoxic, single point]
CCOC(=O)C1CCN(c2nc(-c3ccc(Br)cc3)nc3ccccc23)CC1		inconclusive: 16.4 µM [cytotoxic, partial curve] and inconclusive: 23.1 µM [cytotoxic, single point]
COC(=O)C(N)Cc1ccc(O)c(O)c1 (centres undefined)		inconclusive: 29.1 µM [cytotoxic, single point]

As entered above:
Value for O=C(COC(=O)c1ccc(S(=O)(=O)NCc2ccco2)cc1)NCc1ccc(F)cc1 under Potency: inconclusive: 29.1 µM [rising, single point]
Value for C=CCNc1nc(-c2cc3ccccc3o2)cs1 under Potency: inconclusive: 32.6 µM [cytotoxic, single point]
Value for C=CCN(CC=C)C(=O)c1ccc(OC2CCN(Cc3ccccn3)CC2)cc1 under Potency: inconclusive: 25.9 µM [cytotoxic, single point]

(listing goes on)

Structure (SMILES)	activity change, negative = cytotoxicity	Potency
COc1ccc(S(=O)(=O)N(C(=O)c2ccncc2)c2ccc3oc4c(c3c2)CCCC4)cc1		inconclusive: 29.1 µM [cytotoxic, single point]
O=C(CSc1nnc(-c2ccccc2O)o1)N1CCc2ccccc2C1		inconclusive: 5.17 µM [cytotoxic, full curve, poor fit]
C=CCNC(=S)NN=C1CCC(c2ccccc2)CC1 (centres undefined)		inconclusive: 32.6 µM [rising, single point]
O=C(Cn1nc(C(=O)O)c2ccccc2c1=O)c1c[nH]c2ccccc12	inactive: 9.97%	
Cc1cc(C)n(S(=O)(=O)c2cc(C)c(C)cc2C)n1		inconclusive: 18.4 µM [cytotoxic, single point]
COc1cc(SC)ccc1C(=O)Nc1ncc(Cl)cc1Cl		inconclusive: 8.2 µM [cytotoxic, partial curve]
CC(C)NC(=O)C(c1ccc(F)cc1)N(C(=O)CCC(=O)Nc1ccccn1)C1CCCCC1 (centres undefined)		inconclusive: 1.46 µM [cytotoxic, full curve]
COc1ccccc1C1SCCN1C(=O)c1ccc([N+](=O)[O-])cc1 (centres undefined)	inconclusive: -31.1% [cytotoxic]	
COc1cccc(CNC(=O)C2Cc3cc(S(=O)(=O)N4CCCCCC4)ccc3N2C(C)=O)c1 (centres undefined)		inconclusive: 25.9 µM [cytotoxic, single point]
Cc1cc(C)c(C(=O)/C=C/c2ccc(C(C)C)cc2)c(=O)[nH]1		active: 16.4 µM
CCOC(=O)/C=c1\s/c(=C\c2ccc3cc(OC)ccc3c2)c(=O)n1CC(=O)NCc1ccc2c(c1)OCO2		inconclusive: 25.9 µM [cytotoxic, partial curve, poor fit]
Cc1cccc(-c2ocnc2C(=O)Nc2ccccc2C(=O)N2CCCC2)c1		inconclusive: 14.6 µM [cytotoxic, partial curve]
Cc1ccnc(NC(=O)c2ccc(Cl)c(S(=O)(=O)N3CCCCC3)c2)c1		inconclusive: 23.1 µM [cytotoxic, single point]
O=C1CSC(c2ccccc2)N1c1ccccc1F (centres undefined)		inconclusive: 2.91 µM [rising, single point]
C=CCn1c(=O)c2ccccc2n2c(SCC(=O)/C(C#N)=C(\C)N)nnc12		inconclusive: 29.1 µM [cytotoxic, single point]
CCCCNC(=O)c1ccc(N2CCC3(CC2)OCCO3)c([N+](=O)[O-])c1		inconclusive: 10.3 µM [cytotoxic, partial curve]
C=CCSc1nnc(CNC(=O)c2ccc(Cl)cc2)n1CC		inconclusive: 25.9 µM [rising, single point]
Cc1ccc(NC(=O)c2sc3ncn(CC(=O)N4CCN(c5ccccn5)CC4)c(=O)c3c2C)cc1F	inactive: 23.2%	
O=C(CSc1ncnc2c1cnn2-c1ccccc1)NC1CCCC1		inconclusive: 14.6 µM [cytotoxic, partial curve]
CCc1ccc2c(c1)C(=O)C[C@]1(CCC[C@H](C)C1)O2	inactive: -8.78%	
CCn1c(CCNC(=O)c2cccs2)nnc1SCC(=O)Nc1ccc(Cl)cc1	inconclusive: -30.4% [cytotoxic]	
CC(=O)N1CCCc2ccc(NS(=O)(=O)c3ccc(C)c(C)c3)cc21		inconclusive: 3.66 µM [cytotoxic, partial curve, poor fit]

Structure (SMILES)	activity change, negative = cytotoxicity	Potency
CCOC(=O)Cn1ccc(-c2ccccc2)c(C#N)c1=O		inconclusive: 29.1 µM [cytotoxic, single point]
COC(=O)c1ccc(C(=O)NC(=S)Nc2nc3c(s2)CC(C)CC3)cc1 (centres undefined)		inconclusive: 18.4 µM [cytotoxic, single point]
CN(C(=O)CCc1ccccc1)c1nnc(-c2ccncc2)s1		inconclusive: 29.1 µM [cytotoxic, single point]
O=C(N/N=C/c1ccc2c(c1)OCO2)c1cccc(NC(=O)c2ccccc2Cl)c1	inactive: -23.5%	
CSc1ccc(S(=O)(=O)NCc2ccc(Cl)cc2)cc1		active: 23.1 µM
CSc1ccccc1NC(=S)N/N=C/c1cccn1Cc1ccc(F)cc1		inconclusive: 18.4 µM [cytotoxic, partial curve, poor fit]
C(=N\c1nc2ccccc2n1Cc1ccccc1)/c1cccs1		inconclusive: 18.4 µM [cytotoxic, partial curve]
CCCCCn1c(NCc2ccccc2OC)nc2ccccc21		inconclusive: 25.9 µM [cytotoxic, single point]
CC(C)CCn1c2ccccc2c2cc(CC(N)=O)ccc21	inactive: 0%	
COc1cccc(C=NNC(=S)NN=Cc2cccc(OC)c2OC)c1OC		inconclusive: 32.6 µM [cytotoxic, single point]
CC[C@@H](C(=O)[C@@H](C)[C@@H](O)[C@H](C)CCc1ccc(C)c(O)c1C(=O)O)[C@H]1O[C@](CC)([C@H]2CC[C@](O)(CC)[C@H](C)O2)C[C@@H]1C		inconclusive: 23.1 µM [cytotoxic, single point]
Cn1nc(C(=O)N2CCN(c3cccc(Cl)c3)CC2)c2c1-c1ccccc1S(=O)(=O)C2		inconclusive: 23.1 µM [cytotoxic, single point]
Cn1c(=O)c2c(nc(NCc3ccc4c(c3)OCO4)n2C)n(C)c1=O	inactive: -9.42%	
O=C(N/N=C/c1cc(Cl)ccc1O)c1ccccc1Br		inconclusive: 18.4 µM [cytotoxic, single point]
CCN(CC(=O)Nc1ccc(Br)cc1)CC(=O)Nc1cc(C)on1		inconclusive: 6.51 µM [cytotoxic, partial curve, poor fit]
COc1ccc(Cl)cc1NC(=O)CN(C)C(=O)c1ccc2c(c1)OCCO2		inconclusive: 9.2 µM [cytotoxic, partial curve]
CCc1nc(SCC(=O)c2ccccc2)c2c(=O)n(C)c(=O)n(C)c2n1		inconclusive: 20.6 µM [cytotoxic, single point]
O=C(N/N=C/c1sc(N2CCOCC2)nc1-c1ccccc1)c1cccc(S(=O)(=O)N2CCOCC2)c1	inactive: -22%	
COC(=O)Nc1ccc(=O)n(Cc2c(Cl)cccc2Cl)c1	inactive: -9.07%	
CN(CCC#N)C(=O)COC(=O)[C@H](Cc1ccccc1)N1C(=O)c2ccccc2C1=O		inconclusive: 16.4 µM [rising, partial curve, poor fit]
